Test results as given in the supplement of paper PMC10849652.
The other results are listed elsewhere or left out.

Protein sequences, listed by entry. Tags and fused reporters are not part of them. Lines headed by an entry give the natural chain unless they say otherwise; changes in a name come on top.
UniProt Q9UHY7: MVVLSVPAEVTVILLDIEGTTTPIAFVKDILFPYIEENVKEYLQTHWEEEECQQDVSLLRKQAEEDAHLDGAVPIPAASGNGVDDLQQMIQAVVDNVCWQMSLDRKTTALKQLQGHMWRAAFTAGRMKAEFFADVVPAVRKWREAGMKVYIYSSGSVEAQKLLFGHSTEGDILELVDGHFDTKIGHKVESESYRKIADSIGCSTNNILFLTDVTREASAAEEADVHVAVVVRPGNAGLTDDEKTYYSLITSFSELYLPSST
UniProt Q8N766: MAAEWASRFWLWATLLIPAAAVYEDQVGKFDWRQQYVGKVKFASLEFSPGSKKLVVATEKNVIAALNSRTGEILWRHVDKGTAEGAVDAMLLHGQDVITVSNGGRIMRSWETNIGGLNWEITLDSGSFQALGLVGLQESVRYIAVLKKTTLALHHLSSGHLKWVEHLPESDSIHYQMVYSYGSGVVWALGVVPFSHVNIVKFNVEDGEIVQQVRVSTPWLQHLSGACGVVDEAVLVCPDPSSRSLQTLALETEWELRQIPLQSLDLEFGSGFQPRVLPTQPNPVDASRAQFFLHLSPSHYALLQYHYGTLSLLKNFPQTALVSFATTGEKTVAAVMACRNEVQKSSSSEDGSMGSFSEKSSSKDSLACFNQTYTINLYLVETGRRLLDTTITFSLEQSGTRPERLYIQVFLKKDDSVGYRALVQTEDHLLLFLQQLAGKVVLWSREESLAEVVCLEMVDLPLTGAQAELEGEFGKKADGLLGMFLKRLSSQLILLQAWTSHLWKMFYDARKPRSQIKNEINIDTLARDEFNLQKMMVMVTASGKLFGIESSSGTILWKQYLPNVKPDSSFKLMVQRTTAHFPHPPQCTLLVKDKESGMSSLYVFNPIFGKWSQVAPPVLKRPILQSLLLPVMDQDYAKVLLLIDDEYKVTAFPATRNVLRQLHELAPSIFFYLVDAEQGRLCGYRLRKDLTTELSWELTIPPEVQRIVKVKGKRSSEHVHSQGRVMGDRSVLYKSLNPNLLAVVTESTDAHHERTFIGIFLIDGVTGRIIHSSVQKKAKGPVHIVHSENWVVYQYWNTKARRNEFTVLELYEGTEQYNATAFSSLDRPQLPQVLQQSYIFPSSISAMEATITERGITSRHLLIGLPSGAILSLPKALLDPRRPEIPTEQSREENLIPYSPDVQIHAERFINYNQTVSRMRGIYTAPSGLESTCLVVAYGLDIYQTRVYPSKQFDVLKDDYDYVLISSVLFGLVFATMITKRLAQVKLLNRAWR
UniProt Q9GZV4: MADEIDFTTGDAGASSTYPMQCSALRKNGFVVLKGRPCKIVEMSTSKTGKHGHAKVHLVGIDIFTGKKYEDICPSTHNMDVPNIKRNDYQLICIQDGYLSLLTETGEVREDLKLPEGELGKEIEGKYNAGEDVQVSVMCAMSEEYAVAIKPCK
UniProt Q99613, whole entry, looked up: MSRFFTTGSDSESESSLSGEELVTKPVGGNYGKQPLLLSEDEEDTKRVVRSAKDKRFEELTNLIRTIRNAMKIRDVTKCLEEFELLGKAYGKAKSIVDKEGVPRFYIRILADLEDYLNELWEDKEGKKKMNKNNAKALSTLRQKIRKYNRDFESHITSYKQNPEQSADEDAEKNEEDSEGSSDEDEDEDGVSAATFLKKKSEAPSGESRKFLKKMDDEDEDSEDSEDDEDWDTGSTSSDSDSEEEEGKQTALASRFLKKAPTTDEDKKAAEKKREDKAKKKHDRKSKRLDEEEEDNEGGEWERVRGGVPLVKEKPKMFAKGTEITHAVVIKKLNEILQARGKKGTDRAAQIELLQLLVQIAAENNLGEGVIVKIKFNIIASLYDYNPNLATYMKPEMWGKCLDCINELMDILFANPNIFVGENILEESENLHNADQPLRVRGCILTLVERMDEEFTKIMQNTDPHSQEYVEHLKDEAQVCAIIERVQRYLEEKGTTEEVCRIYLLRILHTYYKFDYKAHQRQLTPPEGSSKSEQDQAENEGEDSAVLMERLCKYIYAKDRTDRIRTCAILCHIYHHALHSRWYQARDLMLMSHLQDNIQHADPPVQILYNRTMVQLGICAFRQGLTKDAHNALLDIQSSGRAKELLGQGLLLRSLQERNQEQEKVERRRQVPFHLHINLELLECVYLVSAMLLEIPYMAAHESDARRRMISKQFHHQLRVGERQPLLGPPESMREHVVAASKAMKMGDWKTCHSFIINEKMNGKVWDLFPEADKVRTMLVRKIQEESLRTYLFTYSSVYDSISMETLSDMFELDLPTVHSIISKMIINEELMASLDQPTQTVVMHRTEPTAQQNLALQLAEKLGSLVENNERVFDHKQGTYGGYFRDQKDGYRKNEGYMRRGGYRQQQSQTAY
UniProt P28715: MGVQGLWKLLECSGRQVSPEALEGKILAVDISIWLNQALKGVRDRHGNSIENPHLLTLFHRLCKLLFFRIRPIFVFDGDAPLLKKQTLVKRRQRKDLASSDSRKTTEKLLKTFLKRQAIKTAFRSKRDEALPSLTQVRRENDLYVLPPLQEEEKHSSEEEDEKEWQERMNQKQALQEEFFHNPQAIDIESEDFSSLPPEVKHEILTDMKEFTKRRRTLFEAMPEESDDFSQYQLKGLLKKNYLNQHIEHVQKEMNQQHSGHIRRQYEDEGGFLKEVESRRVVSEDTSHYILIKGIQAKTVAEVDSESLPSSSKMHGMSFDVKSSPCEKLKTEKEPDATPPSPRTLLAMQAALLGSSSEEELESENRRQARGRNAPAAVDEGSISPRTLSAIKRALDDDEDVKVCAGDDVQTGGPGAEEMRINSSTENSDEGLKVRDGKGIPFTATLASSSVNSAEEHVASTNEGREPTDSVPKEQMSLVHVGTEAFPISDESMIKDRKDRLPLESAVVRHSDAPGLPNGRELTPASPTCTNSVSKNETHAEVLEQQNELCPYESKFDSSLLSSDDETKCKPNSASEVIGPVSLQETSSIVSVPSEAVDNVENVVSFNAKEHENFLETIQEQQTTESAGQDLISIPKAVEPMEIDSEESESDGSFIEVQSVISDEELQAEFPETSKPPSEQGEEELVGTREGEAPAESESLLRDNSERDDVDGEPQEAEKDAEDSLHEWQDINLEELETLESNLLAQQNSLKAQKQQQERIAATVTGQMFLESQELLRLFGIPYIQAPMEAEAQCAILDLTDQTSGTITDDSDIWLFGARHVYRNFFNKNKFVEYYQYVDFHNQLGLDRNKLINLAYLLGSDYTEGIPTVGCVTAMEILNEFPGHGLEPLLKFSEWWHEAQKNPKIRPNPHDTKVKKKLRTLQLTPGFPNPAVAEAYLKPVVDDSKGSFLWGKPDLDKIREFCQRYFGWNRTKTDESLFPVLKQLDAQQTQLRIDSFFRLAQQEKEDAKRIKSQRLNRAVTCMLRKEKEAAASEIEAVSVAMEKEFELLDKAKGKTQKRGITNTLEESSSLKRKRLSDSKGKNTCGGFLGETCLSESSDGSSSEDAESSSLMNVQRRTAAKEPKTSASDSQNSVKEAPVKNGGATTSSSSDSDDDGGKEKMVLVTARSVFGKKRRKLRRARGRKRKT
UniProt Q14232, whole entry, looked up: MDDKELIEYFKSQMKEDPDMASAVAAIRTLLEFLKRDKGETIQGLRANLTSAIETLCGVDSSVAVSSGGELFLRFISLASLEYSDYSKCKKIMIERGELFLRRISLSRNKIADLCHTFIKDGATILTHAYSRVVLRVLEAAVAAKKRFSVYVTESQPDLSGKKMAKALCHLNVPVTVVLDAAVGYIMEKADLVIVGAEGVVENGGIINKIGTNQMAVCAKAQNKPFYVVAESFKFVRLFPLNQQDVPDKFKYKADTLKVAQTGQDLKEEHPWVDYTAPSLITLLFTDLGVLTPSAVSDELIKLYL
UniProt Q0PNE2: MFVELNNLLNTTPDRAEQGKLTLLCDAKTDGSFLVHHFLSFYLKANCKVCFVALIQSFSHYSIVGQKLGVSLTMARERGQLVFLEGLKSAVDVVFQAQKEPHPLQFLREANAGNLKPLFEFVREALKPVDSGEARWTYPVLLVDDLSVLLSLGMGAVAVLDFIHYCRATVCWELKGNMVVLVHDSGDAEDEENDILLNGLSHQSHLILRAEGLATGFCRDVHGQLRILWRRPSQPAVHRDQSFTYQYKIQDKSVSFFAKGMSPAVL
UniProt P55199: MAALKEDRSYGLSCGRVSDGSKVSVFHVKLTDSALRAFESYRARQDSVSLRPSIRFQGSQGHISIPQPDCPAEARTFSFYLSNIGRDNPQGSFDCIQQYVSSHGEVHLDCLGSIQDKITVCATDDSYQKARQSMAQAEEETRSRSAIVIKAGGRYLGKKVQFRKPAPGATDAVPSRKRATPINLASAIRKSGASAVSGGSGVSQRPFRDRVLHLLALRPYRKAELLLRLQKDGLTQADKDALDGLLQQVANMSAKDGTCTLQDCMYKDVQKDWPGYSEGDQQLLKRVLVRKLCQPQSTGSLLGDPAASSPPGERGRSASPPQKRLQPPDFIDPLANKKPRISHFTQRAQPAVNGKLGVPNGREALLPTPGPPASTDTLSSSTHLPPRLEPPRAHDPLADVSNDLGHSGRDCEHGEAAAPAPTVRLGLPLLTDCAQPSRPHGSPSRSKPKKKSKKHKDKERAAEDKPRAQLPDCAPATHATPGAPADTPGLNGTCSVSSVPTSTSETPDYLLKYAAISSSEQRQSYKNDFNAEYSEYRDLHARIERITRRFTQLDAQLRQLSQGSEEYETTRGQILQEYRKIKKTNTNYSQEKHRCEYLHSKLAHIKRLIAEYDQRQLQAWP
UniProt P60842, whole entry, looked up: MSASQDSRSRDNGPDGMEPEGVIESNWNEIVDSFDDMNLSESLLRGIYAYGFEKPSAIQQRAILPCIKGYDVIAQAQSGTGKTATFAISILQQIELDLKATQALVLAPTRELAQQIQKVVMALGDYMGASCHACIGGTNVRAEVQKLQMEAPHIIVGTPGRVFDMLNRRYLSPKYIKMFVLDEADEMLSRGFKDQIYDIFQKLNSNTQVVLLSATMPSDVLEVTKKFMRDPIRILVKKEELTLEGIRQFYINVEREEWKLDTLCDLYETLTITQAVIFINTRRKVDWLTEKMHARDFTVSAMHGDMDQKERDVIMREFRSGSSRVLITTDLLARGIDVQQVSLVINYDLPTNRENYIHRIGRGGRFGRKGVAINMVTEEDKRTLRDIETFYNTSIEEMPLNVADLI
UniProt Q9NZ08: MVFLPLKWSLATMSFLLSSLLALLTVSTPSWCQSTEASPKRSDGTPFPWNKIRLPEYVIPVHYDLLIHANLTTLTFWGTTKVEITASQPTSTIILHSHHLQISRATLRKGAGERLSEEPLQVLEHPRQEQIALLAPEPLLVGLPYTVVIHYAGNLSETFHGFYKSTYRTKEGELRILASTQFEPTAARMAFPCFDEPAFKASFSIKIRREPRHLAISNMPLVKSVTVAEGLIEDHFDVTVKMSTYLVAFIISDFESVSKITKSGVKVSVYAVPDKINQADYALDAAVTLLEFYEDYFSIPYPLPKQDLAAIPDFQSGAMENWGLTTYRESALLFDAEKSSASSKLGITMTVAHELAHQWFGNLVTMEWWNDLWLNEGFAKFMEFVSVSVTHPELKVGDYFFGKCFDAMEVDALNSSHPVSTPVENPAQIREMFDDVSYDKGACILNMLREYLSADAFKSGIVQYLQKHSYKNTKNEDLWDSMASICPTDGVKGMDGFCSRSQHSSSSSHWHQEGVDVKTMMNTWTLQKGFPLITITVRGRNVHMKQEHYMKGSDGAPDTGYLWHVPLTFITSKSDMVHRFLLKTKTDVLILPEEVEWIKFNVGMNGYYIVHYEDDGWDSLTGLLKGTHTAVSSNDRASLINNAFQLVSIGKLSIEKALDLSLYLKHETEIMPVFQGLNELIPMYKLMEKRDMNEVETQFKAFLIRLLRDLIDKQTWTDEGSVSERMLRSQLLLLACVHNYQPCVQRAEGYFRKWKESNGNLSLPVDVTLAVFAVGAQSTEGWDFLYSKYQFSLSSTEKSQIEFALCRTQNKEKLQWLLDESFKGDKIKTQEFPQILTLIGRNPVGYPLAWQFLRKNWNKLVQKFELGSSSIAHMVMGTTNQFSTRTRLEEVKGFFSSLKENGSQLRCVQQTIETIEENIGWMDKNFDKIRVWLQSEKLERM
UniProt Q14240, whole entry, looked up: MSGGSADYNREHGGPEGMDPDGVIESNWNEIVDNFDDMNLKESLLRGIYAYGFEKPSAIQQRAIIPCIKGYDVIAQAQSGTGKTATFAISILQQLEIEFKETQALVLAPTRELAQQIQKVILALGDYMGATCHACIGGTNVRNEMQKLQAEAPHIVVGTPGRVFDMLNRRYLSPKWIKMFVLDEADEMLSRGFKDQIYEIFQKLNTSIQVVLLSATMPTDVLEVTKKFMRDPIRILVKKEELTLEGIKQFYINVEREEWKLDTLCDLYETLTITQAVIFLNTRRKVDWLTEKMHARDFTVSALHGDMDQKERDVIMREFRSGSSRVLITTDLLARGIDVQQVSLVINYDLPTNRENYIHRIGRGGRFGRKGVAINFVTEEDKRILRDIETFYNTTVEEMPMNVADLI

Tests used:
Assay in all cases: log2 fold change, soluble protein after heating vs DMSO (PISA); higher = thermal stabilisation; K562 lysate, 10 uM; active = over 0.2 and 3.5 SD of the protein, either way, in both replicates (recomputed)
vemurafenib = compound: CCCS(=O)(=O)Nc1ccc(F)c(C(=O)c2c[nH]c3ncc(-c4ccc(Cl)cc4)cc23)c1F [vemurafenib]
Summary of the method: (§1)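 Dounce homogenisation of K562 pellets in PBS pH 7.4 with 1 mM MgCl2 produced a crude extract, used at 1 mg/mL protein. Exposure to 10 μM compound lasted 30 min, and aliquots were then heated for 3 min across 48°C-58°C, pooled and brought to 0.5% NP-40 at 4°C. The supernatant after 21,000xg for 90 min was quantified by TMTpro 16plex LC-MS/MS with channel sums equalised. Duplicate values are given as log-two fold change in thermal stability relative to solvent controls.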

[1] = compound: CCCS(=O)(=O)Nc1ccc(F)c(C(=O)c2c[nH]c3ncc(Cl)cc23)c1F
Summary of the method: as §1

barasertib = compound: CCN(CCCOc1ccc2c(Nc3cc(CC(=O)Nc4cccc(F)c4)[nH]n3)ncnc2c1)CCOP(=O)(O)O [barasertib]
Summary of the method: as §1

[2] = compound: CC[C@@H]1C(=O)N(C)c2cnc(Nc3ccc(C(=O)NC4CCN(C)CC4)cc3OC)nc2N1C1CCCC1
Summary of the method: as §1

volasertib = compound: CC[C@@H]1C(=O)N(C)c2cnc(Nc3ccc(C(=O)N[C@H]4CC[C@H](N5CCN(CC6CC6)CC5)CC4)cc3OC)nc2N1C(C)C [volasertib]
Summary of the method: as §1

[3] = compound: CCn1c(C(=O)N(C2CC2)C2CC2)cc2c3c(ncn3C)c(Nc3cc(C)n(C)n3)nc21
Summary of the method: as §1

[4] = compound: CCn1cc(-c2ccnc3[nH]c(-c4cccc(CN(C)C)c4)cc23)c(-c2ccc(NC(=O)N(C)C)cc2)n1
Summary of the method: as §1

[5] = compound: CN1CCC(CNc2ccc3ncc(-c4cccc(OC(F)(F)F)c4)n3n2)CC1
Summary of the method: as §1

saracatinib = compound: CN1CCN(CCOc2cc(OC3CCOCC3)c3c(Nc4c(Cl)ccc5c4OCO5)ncnc3c2)CC1 [saracatinib]
Summary of the method: as §1

sotrastaurin = compound: CN1CCN(c2nc(C3=C(c4c[nH]c5ccccc45)C(=O)NC3=O)c3ccccc3n2)CC1 [sotrastaurin]
Summary of the method: as §1

alvocidib = compound: CN1CC[C@H](c2c(O)cc(O)c3c(=O)cc(-c4ccccc4Cl)oc23)[C@H](O)C1 [alvocidib]
Summary of the method: as §1

Tubastatin A = compound: CN1CCc2c(c3ccccc3n2Cc2ccc(C(=O)NO)cc2)C1 [Tubastatin A]
Summary of the method: as §1

[6] = compound: CNC(=O)C1=CC=CC=C1NC2=NC(=NC=C2Cl)NC3=C(C=C(C=C3)N4CCOCC4)OC
Summary of the method: as §1

defactinib = compound: CNC(=O)c1ccc(Nc2ncc(C(F)(F)F)c(NCc3nccnc3N(C)S(C)(=O)=O)n2)cc1 [defactinib]
Summary of the method: as §1

[7] = compound: CNc1nc(-c2ccc3c(N)n[nH]c3c2)cc(N2C[C@@H](C(=O)NC3CCCCC3)CC[C@H]2C)n1
Summary of the method: as §1

encorafenib = compound: COC(=O)N[C@@H](C)CNc1nccc(-c2cn(C(C)C)nc2-c2cc(Cl)cc(NS(C)(=O)=O)c2F)n1 [encorafenib]
Summary of the method: as §1

[8] = compound: COC(=O)[C@H](CCSC)NC(=O)C1=C(C=C(C=C1)NC[C@H](CS)N)C2=CC=CC=C2
Summary of the method: as §1

alisertib = compound: COc1cc(Nc2ncc3c(n2)-c2ccc(Cl)cc2C(c2c(F)cccc2OC)=NC3)ccc1C(=O)O [alisertib]
Summary of the method: as §1

[9] = compound: COc1cc2nc(-c3cc(F)ccc3O)nc(N[C@@H]3CNC[C@H]3C(C)(C)O)c2cc1OC
Summary of the method: as §1

gefitinib = compound: COc1cc2ncnc(Nc3ccc(F)c(Cl)c3)c2cc1OCCCN1CCOCC1 [gefitinib]
Summary of the method: as §1

Measured: log2 fold change

ENOPH1 (UniProt Q9UHY7)
inactive: vemurafenib -0.016 | [1] 0.03 | barasertib 0.077 | [2] -0.018 | volasertib -0.016 | [3] 0.003 | [4] 0.021 | [5] 0.006 | saracatinib 0.005 | sotrastaurin 0.035 | alvocidib 0.032 | Tubastatin A -0.004 | [6] 0.026 | defactinib 0.025 | [7] -0.017 | encorafenib -0.035 | [8] 0.058 | alisertib -0.034 | [9] -0.003 | gefitinib -0.023

ELOB (UniProt Q15370)
inactive: vemurafenib -0.016 | [1] -0.018 | barasertib 0.145 | [2] 0.041 | volasertib 0.046 | [3] 0 | [4] -0.087 | [5] -0.013 | saracatinib -0.016 | sotrastaurin -0.045 | alvocidib 0.013 | Tubastatin A 0.013 | [6] -0.036 | defactinib 0.054 | [7] 0.028 | encorafenib -0.003 | [8] 0 | alisertib 0.022 | [9] 0 | gefitinib -0.091

EMC1 (UniProt Q8N766)
inactive: vemurafenib 0.012 | [1] -0.005 | barasertib 0.022 | [2] -0.048 | volasertib 0.005 | [3] -0.012 | [4] -0.108 | [5] 0.036 | saracatinib -0.005 | sotrastaurin 0.038 | alvocidib -0.024 | Tubastatin A 0.023 | [6] -0.003 | defactinib 0.042 | [7] -0.053 | encorafenib 0.026 | [8] -0.057 | alisertib -0.01 | [9] -0.004 | gefitinib 0.016

EIF5A2 (UniProt Q9GZV4)
inactive: vemurafenib 0.161 | [1] 0.002 | barasertib -0.001 | [2] 0.02 | volasertib -0.049 | [3] -0.073 | [4] -0.32 | [5] 0.101 | saracatinib -0.012 | sotrastaurin 0.04 | alvocidib -0.043 | Tubastatin A 0.048 | [6] 0.027 | defactinib -0.038 | [7] -0.04 | encorafenib -0.021 | [8] -0.023 | alisertib -0.042 | [9] -0.028 | gefitinib -0.128

EIF4ENIF1 isoform 3 (UniProt Q9NRA8)
inactive: vemurafenib 0.058 | [1] -0.061 | barasertib 0.014 | [2] 0.068 | volasertib -0.031 | [3] 0.012 | [4] -0.083 | [5] 0 | saracatinib 0.08 | sotrastaurin -0.053 | alvocidib -0.028 | Tubastatin A -0.047 | [6] -0.008 | defactinib 0.059 | [7] 0.062 | encorafenib -0.009 | [8] -0.242 | alisertib 0.019 | [9] -0.012 | gefitinib 0.076

EIF3C (UniProt Q99613)
inactive: vemurafenib 0 | [1] 0.007 | barasertib 0.017 | [2] -0.06 | volasertib -0.041 | [3] 0.024 | [4] -0.073 | [5] 0.009 | saracatinib 0.019 | sotrastaurin -0.015 | alvocidib 0.006 | Tubastatin A -0.02 | [6] 0.069 | defactinib -0.028 | [7] -0.033 | encorafenib -0.001 | [8] 0.1 | alisertib 0.018 | [9] -0.004 | gefitinib -0.02

ERCC5 (UniProt P28715)
inactive: vemurafenib 0.018 | [1] 0.034 | barasertib -0.044 | [2] -0.016 | volasertib 0 | [3] -0.083 | [4] 0.001 | [5] 0.013 | saracatinib -0.006 | sotrastaurin 0.033 | alvocidib -0.016 | Tubastatin A 0.027 | [6] 0.076 | defactinib 0.032 | [7] 0.008 | encorafenib 0.014 | [8] -0.039 | alisertib -0.023 | [9] 0.006 | gefitinib -0.043

EIF2B1 (UniProt Q14232)
inactive: vemurafenib -0.002 | [1] 0.005 | barasertib -0.029 | [2] -0.007 | volasertib 0.013 | [3] 0.006 | [4] 0.027 | [5] -0.006 | saracatinib -0.013 | sotrastaurin -0.01 | alvocidib -0.002 | Tubastatin A -0.006 | [6] 0.007 | defactinib -0.013 | [7] -0.001 | encorafenib -0.003 | [8] -0.076 | alisertib -0.006 | [9] -0.01 | gefitinib -0.042

ELP6 (UniProt Q0PNE2)
inactive: vemurafenib 0.038 | [1] 0.022 | barasertib 0.029 | [2] 0.064 | volasertib 0.026 | [3] -0.013 | [4] -0.177 | [5] 0.049 | saracatinib 0.016 | sotrastaurin 0.01 | alvocidib -0.073 | Tubastatin A 0.014 | [6] 0.034 | defactinib 0.038 | [7] 0.067 | encorafenib 0.005 | [8] -0.113 | alisertib 0.023 | [9] -0.013 | gefitinib -0.029

Fetched one by one from above (two):
EIF3C (UniProt Q99613)
inactive: vemurafenib 0 | [1] 0.007 | barasertib 0.017 | [2] -0.06 | volasertib -0.041 | [3] 0.024 | [4] -0.073 | [5] 0.009 | saracatinib 0.019 | sotrastaurin -0.015 | alvocidib 0.006 | Tubastatin A -0.02 | [6] 0.069 | defactinib -0.028 | [7] -0.033 | encorafenib -0.001 | [8] 0.1 | alisertib 0.018 | [9] -0.004 | gefitinib -0.02

EIF4ENIF1 isoform 3 (UniProt Q9NRA8)
inactive: vemurafenib 0.058 | [1] -0.061 | barasertib 0.014 | [2] 0.068 | volasertib -0.031 | [3] 0.012 | [4] -0.083 | [5] 0 | saracatinib 0.08 | sotrastaurin -0.053 | alvocidib -0.028 | Tubastatin A -0.047 | [6] -0.008 | defactinib 0.059 | [7] 0.062 | encorafenib -0.009 | [8] -0.242 | alisertib 0.019 | [9] -0.012 | gefitinib 0.076

The listing continues.

ELL (UniProt P55199)
inactive: vemurafenib 0.119 | [1] 0.035 | barasertib -0.055 | [2] -0.017 | volasertib -0.034 | [3] 0.002 | [4] 0.145 | [5] -0.076 | saracatinib 0.05 | sotrastaurin 0.061 | alvocidib 0.01 | Tubastatin A -0.038 | [6] 0.042 | defactinib -0.004 | [7] -0.09 | encorafenib -0.014 | [8] 0.017 | alisertib 0.022 | [9] 0.022 | gefitinib 0.087

EIF4A1 (UniProt P60842)
inactive: vemurafenib 0.006 | [1] 0.006 | barasertib -0.01 | [2] -0.016 | volasertib -0.027 | [3] -0.033 | [4] -0.045 | [5] -0.003 | saracatinib 0.006 | sotrastaurin -0.008 | alvocidib 0.011 | Tubastatin A 0.032 | [6] 0.001 | defactinib -0.018 | [7] 0.028 | encorafenib -0.016 | [8] 0.041 | alisertib 0.011 | [9] 0.024 | gefitinib -0.035

ERAP1 isoform 2 (UniProt Q9NZ08)
inactive: vemurafenib 0.017 | [1] 0.001 | barasertib -0.006 | [2] 0.001 | volasertib 0.011 | [3] -0.018 | [4] 0.051 | [5] -0.016 | saracatinib 0.01 | sotrastaurin 0.036 | alvocidib -0.015 | Tubastatin A 0.041 | [6] -0.013 | defactinib -0.002 | [7] 0.03 | encorafenib -0.007 | [8] -0.002 | alisertib -0.016 | [9] 0.019 | gefitinib 0.002

EIF4A2 isoform 2 (UniProt Q14240)
inactive: vemurafenib -0.048 | [1] -0.002 | barasertib -0.026 | [2] -0.076 | volasertib -0.017 | [3] 0.023 | [4] -0.072 | [5] 0.053 | saracatinib 0.01 | sotrastaurin 0.006 | alvocidib -0.025 | Tubastatin A -0.033 | [6] -0.005 | defactinib -0.018 | [7] -0.019 | encorafenib 0.012 | [8] -0.004 | alisertib 0.001 | [9] 0.009 | gefitinib -0.03

EMC2 (UniProt Q15006)
inactive: vemurafenib -0.011 | [1] -0.023 | barasertib 0 | [2] -0.058 | volasertib -0.027 | [3] 0.008 | [4] -0.036 | [5] -0.036 | saracatinib 0.029 | sotrastaurin 0.053 | alvocidib 0.093 | Tubastatin A 0.053 | [6] -0.027 | defactinib -0.004 | [7] 0.014 | encorafenib -0.012 | [8] 0.023 | alisertib 0 | [9] 0.02 | gefitinib -0.042

EIF2B5 (UniProt Q13144)
inactive: vemurafenib -0.007 | [1] 0.019 | barasertib 0.013 | [2] -0.012 | volasertib -0.027 | [3] 0.021 | [4] -0.065 | [5] -0.057 | saracatinib 0.009 | sotrastaurin 0.038 | alvocidib 0.03 | Tubastatin A -0.06 | [6] 0.04 | defactinib 0.022 | [7] 0.023 | encorafenib -0.009 | [8] 0.046 | alisertib -0.004 | [9] 0.005 | gefitinib -0.016
